Results taken from article PMC7094869.

Tests used:
[1] = molecular target: T1, Klp10A (Drosophila melanogaster (endogenous in testes)) (UniProt Q960Z0); assay: affinity purification with mass spectrometry; anti-Klp10A pull down from Dpp testis (nos>dpp, SG tumor); two experiments; LC/MS/MS
T1 sequence: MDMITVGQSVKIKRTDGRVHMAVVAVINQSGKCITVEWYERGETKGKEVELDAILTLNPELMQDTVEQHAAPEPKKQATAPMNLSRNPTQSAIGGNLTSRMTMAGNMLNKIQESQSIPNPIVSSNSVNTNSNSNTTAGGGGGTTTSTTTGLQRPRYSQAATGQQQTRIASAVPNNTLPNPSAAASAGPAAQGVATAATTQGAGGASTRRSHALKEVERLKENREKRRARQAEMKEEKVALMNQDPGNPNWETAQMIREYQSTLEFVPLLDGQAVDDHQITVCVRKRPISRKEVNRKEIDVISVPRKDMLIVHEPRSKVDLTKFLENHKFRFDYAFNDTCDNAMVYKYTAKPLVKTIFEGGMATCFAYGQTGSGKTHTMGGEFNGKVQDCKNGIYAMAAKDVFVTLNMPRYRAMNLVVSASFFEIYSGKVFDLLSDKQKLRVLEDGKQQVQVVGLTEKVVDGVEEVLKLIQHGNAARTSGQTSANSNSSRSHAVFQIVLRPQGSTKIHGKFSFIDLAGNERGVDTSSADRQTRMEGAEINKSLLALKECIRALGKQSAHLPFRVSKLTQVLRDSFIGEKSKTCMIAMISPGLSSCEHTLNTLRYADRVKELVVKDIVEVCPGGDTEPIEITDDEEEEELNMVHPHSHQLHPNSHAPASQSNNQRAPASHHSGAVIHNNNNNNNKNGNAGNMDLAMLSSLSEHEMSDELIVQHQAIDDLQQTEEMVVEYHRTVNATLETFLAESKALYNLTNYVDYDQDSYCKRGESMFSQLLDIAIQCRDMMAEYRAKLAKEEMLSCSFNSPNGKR

[2] = molecular target: T2, GFP-Klp10A (Drosophila melanogaster) (UniProt Q960Z0); assay: affinity purification with mass spectrometry; GFP-Trap agarose beads on GFP-Klp10A; 1500 pairs of nos-gal4>UAS-upd, UAS-gfp-klp10A testes; 10 mM Tris-HCl pH 7.5, 150 mM NaCl, 0.5 mM EDTA, 0.1% NP40; control GFP from Upd testis; LC-MS/MS
T2 sequence: T1 sequence

[3] = molecular target: T1, Klp10A (Drosophila melanogaster (endogenous in testes)); assay: affinity purification with mass spectrometry; guinea-pig anti-Klp10A on Protein A-Dynabeads; 250 pairs of nos-gal4>UAS-upd testes; 10 mM Tris-HCl pH 7.5, 150 mM NaCl, 0.5 mM EDTA, 0.1% NP40; control pre-immune IgG; two experiments; LC/MS/MS

binding [1]: binds
binding [2]: binds
binding [3]: binds
B1: Armitage (protein, UniProt Q6J5K9 1-1188)
chain: MFTYVSKFFTNPDRNREDILESLDRENSFLDQKLMEEKMDQQLKANPNEINGVLSNKIAELTHGLSEMDVSKESSCTARKGVITSLDGDRGVIDKDVLFETKVAEDIILDLHVGCVVEYLTFTTGEAMRVVKVKSILEHSWEDTSQKEIEKAVDNLKNEKPTFFNTETRSVLGLISQRLASSIDVETEYGQLTVELDNIEMNFIPTNGDRVRLECNIQLDDGFVDKQGEILEVTKLFPTRIQEGEKCIVERVYVHMVVLGPETYILKTDLPTGTDLHLGDIVLADLIECQYSKFTRRAIKITPLEKNFGATKLTQQSSMGSSGSGKAVTVTGVNRFITAELWQKESVSLKLTNNLNRTLRLESITVCNDSESQLSVVSPLESKEISSGSEITVTFEIHTQFLGEAIEKYVLNFDLLKVRRVFTVIVCKTKEEVAEAEKRMIAAEALMAPGRNSQERSRFYANQVWCNKVDVIPGQQIVTKRRFVALRLGCFEVPKELRQICLTSERRQEMIKAIEQHYSFLTEPLSIKTYMHRFRLLLHLEEIECFVNFRNYDRDRAHFLRDGEFLTLQIENLAERRPSLVIGDTLRVINPWSDPDSQTTKSYEGIIHKVLFDRILLKFHSSFQEKYNGEDYRLEFYFSRYSFRKQHHAISKIVGVMGEDFLFPSKVTKRENPQLDVYMKDDDMYLYDSKLEWYNQSLNSIQKRAVFNILRGEAENIPYVLFGPPGSGKTMTLIETLLQLVRNLPGARILVGTPSNSSADLVTKRLIDSKALLQGDFIRLVSYNQVEKDLIPPEIMSYCATSDVGAVGSCEDKMMVTESGLKLRCQAKFIGTHRITISTCTTLGNFLQLGFPAGHFTHVLFDEAGQCTEPETMVPIVMLTKKRSQVVLSGDPRQLQSIVTSRIASKMGFSISFLERLLERSPYRKDLQRFPESSGYNPLVLTKLLYNYRALPSIMSIYSRLFYDDELIPVLSEKDSRESRLLSKLRCVFESEKDIPQAHGTFFYGIIGENRQNNDSPSWFNPQEVREVFLMTIALYRANVTADQIGIITPYQKQVKMLRSMFIGTDVVMPKIGSVEEFQGQERDIILISTVRSSEEILRMDARFSLGFVRCSKRLNVAVSRARAMMIIFGNPHLLAVDECWRQLILFCVKNNAYFGCDLPQMVINQKDEVPVCLETFVPSLNTTDDLN

binding [1]: binds
binding [2]: binds
binding [3]: binds
B2: Spindle-E (protein, UniProt Q9VF26 1-1434)
chain: MDQEVMDFFDFSKELKRVAAAPQGYISSDPRLMATKFKSSEVPNRELIGTDYVSKIVAKEKCLLNGTLLNEQPQGKRIRTLDDLDTDDEGEETEIRRDDEYYKKFRFNLNRDKNLSIYAKREEILAAINAHPVVIIKGETGCGKTTQVPQYILDEAYKSGKYCNIVVTQPRRIAAISIANRVCQEREWQQNTVCSFQVGLHRPNSLEDTRLLYCTTGVLLNNLINNKTLTHYTHIVLDEVHERDQNMDFLLIVVRRLLATNSRHVKIILMSATIDAKELSDYFTTTNSIPPVITTNHRRKHSIEKFYRDQLGSIIWNEEDVGHQQVPEINKHGYRAAVKIIVIIDNMERKAAIQSRQSYDEALRYGAVLIFLPGIYEIDTMAENLTCMLENDPNIKVSIVRCFSLMTPENQRDVFNPPPPGFRKIILTTNIAESSITVPDVSYVIDFCLAKVKVTDTASSFSSLRLTWASKANCRQRAGRVGRLRSGRVYRMVNKHFYQREMPEFGIPEMLRLPLQNSVLKAKVLNMGSPVEILALALSPPNLSDIHNTILLLKEVGALYLTVDGIYDPLDGDLTYWGTIMSRLPLDTRQSRLIILGYIFNMLEEAIIIAAGLSTPGLFAHEGGRSQLGDSFWMHYIFSDGSGSDLVAIWRVYLTYLNIVENGHDQESAIRWAKRFHVSLRSLKEIHLLVQELRVRCTHLGLIPFPVNPNQMMDDREKAIMLKVIIAGAFYPNYFTRSKESCADTDRNIYQTISGHDPCRTVYFTNFKPAYMGELYTRRIKELFQEVRIPPENMDVTFQEGSQKVFVTFKQDDWIEGSSKYVPVSGRVQSEVYKAVMMRQNRVERPIHIMNPSAFMSYVQQRGIGDVIEGRWIPPTKPLNVELLALPSVFDKTISGSITCIVNCGKFFFQPQSFEECIRNMSEIFNAPQQLRNYVTNASAIAKGMMVLAKRDSYFQRATVIRPENQSNRQPMFYVRFIDYGNCTLLPMQLMRLMPRELTEQYGDLPPRVFECRLAMVQPSSVVSGNNRWSTAANDMLKTVAQCGLIDIEVYSLFNNVAAVLIHMRDGIINDKLVELMLCRRSDEDYMSRKDHDFRLRRQESARNLSTAQRQQINEEYLRSCQLPQDHDLPPPPLEKCKTVVMLKGPNSPLECTMRSITRVGLSKRVNIDHLSVNALLLDADPQDHHDHLIVAHEIAESRNGQTLTARGTTLMPNVQGFGALMVMLFSPTMQLKCNKEGTSYVSVLGGLGCDPDTNEPYFAEHDVLINLDVNILEDDVILINQIRYYIDSVFFNFKEENNPAVSVNERVSIYTQLRSLINRLLCKDRRYIERNMSNADFEWETNPELPLPNEPFGKRAIFPMHSLTELQEEDTGRLVQLRENCSMLHKWRNFEGTLPHMTCKLCNQLLESVPQLRLHLLTILHRDREKQIDYCNQ

No constants are given. Whether binding was seen depends on the method and setting. In cells and extracts the contact can be indirect. A yes stands for co-enrichment or nearness to the bait. Other partners may have been found. Sequences can lack the tags named with a protein. Each block holds one binder with its values, some of them ahead of it.
